± gives the standard deviation of the averaged measurements. Only a part is listed here, and it is no random draw.
Compound: Nc1ncnc2c1ncn2[C@@H]1O[C@H](COP(=O)(O)OP(=O)(O)OP(=O)(O)O)[C@@H](O)[C@H]1O [adenosine triphosphate]
Experiment: NP40-soluble protein abundance relative to vehicle (solubility fold change) (ratio); higher = more soluble protein in presence of ATP
Outline: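 Eight concentrations, 0.1 to 10 mM, were tested on Jurkat crude lysate for 10 min at room temperature and then 3 min at 37 °C, in three independent experiments. The lysate was solubilised with 0.8% NP40 and benzonase, ultracentrifuged, and the supernatant TMT-labelled for LC-MS/MS. Each value is the fold change against the detergent-processed vehicle in its own replicate, from vsn-normalised intensities.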

Chains of the proteins cited; added tags and fusions are not shown. Lines headed by an entry give the natural chain unless they say otherwise; changes in a name come on top.
UniProt Q8TF01: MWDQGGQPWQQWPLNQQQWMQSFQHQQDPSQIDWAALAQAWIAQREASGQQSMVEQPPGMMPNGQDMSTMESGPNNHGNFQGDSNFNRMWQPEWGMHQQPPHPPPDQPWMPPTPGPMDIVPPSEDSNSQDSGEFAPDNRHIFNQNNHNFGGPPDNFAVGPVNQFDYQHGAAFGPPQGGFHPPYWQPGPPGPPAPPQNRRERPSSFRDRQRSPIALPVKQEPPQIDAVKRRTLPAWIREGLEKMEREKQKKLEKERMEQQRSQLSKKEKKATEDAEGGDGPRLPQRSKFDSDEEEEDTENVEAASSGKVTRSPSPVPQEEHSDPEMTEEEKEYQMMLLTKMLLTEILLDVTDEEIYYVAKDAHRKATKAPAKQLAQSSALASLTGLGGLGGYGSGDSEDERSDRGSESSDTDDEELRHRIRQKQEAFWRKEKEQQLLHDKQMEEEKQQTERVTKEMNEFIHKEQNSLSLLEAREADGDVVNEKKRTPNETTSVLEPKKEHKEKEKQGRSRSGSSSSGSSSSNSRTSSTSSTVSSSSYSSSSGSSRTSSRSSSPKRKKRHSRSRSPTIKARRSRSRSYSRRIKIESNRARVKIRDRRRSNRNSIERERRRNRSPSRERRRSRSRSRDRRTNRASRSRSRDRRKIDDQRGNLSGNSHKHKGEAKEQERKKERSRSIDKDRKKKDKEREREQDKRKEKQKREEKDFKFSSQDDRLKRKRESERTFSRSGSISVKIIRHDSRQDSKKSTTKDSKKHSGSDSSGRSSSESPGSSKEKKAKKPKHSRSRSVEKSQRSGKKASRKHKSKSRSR
UniProt Q92917: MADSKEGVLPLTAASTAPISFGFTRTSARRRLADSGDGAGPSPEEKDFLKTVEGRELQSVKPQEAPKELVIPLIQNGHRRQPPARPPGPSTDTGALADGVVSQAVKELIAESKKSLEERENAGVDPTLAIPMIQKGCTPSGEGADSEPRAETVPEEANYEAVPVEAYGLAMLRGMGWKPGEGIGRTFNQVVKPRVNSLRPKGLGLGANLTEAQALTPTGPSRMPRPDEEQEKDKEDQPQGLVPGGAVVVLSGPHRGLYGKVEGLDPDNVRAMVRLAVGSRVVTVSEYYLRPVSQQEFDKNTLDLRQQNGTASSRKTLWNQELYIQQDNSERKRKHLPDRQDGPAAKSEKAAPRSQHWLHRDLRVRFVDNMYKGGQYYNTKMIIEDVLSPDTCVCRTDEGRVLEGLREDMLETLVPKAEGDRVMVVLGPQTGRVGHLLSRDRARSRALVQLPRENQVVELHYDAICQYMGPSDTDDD
UniProt Q8WW12: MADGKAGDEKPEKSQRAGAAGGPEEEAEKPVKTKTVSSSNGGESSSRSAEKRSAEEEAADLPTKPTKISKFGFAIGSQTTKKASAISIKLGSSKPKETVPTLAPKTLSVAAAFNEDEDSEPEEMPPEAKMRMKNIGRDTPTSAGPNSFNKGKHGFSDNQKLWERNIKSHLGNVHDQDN
UniProt Q8WUQ7: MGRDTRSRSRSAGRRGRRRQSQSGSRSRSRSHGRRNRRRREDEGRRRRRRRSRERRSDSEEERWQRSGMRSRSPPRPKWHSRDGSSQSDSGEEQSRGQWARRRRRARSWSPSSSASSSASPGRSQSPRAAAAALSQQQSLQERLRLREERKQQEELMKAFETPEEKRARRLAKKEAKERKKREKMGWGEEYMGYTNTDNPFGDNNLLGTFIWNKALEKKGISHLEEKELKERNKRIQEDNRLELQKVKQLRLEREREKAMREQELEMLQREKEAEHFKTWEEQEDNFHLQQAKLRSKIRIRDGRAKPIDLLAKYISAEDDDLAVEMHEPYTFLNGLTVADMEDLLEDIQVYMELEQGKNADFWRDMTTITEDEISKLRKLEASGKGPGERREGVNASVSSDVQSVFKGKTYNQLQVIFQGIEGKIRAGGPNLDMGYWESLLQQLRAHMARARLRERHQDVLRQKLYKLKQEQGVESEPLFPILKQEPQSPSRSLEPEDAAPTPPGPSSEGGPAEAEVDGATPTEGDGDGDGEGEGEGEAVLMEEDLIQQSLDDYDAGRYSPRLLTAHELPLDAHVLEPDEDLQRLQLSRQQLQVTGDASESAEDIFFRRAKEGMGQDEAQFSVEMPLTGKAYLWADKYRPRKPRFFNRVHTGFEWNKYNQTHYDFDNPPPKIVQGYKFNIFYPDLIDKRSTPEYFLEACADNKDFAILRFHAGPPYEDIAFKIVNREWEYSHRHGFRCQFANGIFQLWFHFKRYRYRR
UniProt Q8WXE1: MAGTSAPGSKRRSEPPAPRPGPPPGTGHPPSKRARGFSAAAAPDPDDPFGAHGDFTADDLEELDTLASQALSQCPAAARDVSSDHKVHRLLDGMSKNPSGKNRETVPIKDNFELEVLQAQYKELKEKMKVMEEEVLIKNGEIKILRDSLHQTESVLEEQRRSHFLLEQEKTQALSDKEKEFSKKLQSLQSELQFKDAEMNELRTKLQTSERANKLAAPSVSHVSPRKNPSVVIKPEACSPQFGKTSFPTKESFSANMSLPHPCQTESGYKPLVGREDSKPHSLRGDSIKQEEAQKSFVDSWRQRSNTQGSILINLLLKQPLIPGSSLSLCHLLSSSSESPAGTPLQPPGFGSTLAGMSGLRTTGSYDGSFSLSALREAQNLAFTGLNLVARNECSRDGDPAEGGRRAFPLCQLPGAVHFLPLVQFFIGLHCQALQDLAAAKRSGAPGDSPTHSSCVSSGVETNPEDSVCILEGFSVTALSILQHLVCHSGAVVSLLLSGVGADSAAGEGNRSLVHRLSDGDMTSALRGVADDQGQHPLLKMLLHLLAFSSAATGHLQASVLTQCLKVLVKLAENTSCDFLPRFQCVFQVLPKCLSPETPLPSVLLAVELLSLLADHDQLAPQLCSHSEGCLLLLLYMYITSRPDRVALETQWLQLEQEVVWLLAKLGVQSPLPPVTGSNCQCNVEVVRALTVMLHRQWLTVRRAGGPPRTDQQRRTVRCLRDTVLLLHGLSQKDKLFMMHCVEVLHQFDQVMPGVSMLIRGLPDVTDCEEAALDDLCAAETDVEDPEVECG
UniProt Q92696: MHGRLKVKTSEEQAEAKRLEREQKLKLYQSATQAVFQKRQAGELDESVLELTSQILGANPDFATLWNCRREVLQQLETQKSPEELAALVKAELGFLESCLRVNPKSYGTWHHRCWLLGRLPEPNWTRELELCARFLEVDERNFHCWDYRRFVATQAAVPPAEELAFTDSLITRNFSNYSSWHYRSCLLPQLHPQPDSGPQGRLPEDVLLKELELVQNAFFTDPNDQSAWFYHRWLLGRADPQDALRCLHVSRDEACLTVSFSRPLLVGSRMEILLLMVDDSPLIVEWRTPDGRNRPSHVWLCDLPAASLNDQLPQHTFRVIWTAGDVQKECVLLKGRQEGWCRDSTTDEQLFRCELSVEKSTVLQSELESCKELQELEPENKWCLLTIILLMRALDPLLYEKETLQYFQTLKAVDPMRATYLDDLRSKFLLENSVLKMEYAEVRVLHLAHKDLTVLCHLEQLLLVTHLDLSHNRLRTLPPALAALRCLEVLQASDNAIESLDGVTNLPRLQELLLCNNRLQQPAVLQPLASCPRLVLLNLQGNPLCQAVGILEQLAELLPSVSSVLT
UniProt Q96A19: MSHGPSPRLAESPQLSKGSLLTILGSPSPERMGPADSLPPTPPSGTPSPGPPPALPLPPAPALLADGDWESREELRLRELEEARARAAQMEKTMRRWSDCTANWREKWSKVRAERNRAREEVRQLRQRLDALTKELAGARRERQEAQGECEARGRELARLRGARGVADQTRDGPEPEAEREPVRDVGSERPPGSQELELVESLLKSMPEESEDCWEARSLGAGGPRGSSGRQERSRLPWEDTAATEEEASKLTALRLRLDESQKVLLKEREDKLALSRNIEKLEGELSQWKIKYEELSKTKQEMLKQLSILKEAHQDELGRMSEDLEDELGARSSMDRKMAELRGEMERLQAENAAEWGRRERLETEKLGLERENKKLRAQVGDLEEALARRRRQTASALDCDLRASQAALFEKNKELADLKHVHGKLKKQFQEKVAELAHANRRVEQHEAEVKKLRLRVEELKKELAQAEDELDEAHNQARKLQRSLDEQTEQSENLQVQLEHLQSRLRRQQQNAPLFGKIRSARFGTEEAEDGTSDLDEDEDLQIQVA
UniProt Q8WUH2: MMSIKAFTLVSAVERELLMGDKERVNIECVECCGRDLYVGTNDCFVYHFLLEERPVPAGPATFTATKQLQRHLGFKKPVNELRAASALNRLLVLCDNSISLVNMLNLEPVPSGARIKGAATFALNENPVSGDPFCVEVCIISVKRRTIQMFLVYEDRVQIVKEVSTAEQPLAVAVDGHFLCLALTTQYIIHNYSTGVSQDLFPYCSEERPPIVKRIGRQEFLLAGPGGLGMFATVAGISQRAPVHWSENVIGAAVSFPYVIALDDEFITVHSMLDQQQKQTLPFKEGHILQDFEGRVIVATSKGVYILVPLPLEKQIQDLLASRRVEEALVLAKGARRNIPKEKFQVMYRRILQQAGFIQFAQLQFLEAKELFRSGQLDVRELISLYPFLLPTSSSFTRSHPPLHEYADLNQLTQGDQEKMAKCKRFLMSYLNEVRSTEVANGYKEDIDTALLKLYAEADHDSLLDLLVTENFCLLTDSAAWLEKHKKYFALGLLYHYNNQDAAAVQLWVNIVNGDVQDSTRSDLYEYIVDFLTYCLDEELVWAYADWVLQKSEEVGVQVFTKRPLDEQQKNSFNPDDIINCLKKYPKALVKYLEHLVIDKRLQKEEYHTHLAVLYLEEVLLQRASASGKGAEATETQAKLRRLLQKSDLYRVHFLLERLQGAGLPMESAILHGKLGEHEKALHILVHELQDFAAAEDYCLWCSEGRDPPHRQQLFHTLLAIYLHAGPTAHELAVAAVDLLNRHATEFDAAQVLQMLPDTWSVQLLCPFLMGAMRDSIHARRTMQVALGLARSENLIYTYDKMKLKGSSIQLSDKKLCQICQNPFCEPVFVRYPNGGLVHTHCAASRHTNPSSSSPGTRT
UniProt Q8TDQ7: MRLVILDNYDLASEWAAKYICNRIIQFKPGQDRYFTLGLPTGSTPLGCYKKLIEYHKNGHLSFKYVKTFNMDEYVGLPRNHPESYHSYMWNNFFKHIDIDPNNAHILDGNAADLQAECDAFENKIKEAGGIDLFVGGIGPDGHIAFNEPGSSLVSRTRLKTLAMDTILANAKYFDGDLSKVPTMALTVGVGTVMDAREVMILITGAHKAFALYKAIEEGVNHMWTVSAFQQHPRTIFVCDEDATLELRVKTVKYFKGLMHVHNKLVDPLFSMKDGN
UniProt Q8TDN6: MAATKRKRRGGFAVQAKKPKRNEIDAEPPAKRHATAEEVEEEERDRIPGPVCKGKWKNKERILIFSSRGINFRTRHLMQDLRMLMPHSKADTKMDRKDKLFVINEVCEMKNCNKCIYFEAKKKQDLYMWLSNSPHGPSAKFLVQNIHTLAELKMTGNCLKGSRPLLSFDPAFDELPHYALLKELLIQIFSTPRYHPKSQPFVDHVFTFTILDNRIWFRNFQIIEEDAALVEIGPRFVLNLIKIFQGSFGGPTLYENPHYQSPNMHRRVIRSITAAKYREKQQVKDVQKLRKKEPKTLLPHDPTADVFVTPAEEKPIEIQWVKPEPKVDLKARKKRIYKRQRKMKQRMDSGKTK
UniProt Q96B96: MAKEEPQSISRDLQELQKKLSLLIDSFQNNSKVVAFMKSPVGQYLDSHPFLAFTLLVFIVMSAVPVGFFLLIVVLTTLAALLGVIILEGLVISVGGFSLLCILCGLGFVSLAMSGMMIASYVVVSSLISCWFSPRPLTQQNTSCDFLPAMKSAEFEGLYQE
UniProt Q8WXD5: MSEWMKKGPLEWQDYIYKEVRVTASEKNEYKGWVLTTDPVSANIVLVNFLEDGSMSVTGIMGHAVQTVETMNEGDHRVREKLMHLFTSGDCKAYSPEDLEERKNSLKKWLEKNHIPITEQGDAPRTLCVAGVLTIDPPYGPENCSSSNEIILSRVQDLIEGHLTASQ
UniProt Q8WVE0: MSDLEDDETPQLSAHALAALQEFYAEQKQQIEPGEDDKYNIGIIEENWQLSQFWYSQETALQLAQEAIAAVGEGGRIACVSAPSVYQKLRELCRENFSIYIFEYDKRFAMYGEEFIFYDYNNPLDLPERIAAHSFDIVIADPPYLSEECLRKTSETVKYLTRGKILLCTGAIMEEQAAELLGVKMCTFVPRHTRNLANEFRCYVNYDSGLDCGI
UniProt Q96AZ6: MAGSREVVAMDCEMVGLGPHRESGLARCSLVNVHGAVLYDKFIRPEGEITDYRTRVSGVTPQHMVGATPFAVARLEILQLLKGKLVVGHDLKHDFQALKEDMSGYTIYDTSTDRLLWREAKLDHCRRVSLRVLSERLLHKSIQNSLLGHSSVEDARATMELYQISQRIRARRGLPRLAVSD
UniProt Q8WZ82: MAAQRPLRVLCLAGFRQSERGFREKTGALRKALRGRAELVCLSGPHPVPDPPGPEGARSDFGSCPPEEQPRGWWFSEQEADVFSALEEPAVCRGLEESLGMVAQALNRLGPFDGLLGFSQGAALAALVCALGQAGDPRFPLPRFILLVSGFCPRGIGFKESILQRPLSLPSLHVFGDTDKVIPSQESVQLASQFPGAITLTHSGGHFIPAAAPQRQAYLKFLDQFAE

| Target | NP40-soluble protein abundance (concentration: 1mM) | NP40-soluble protein abundance (concentration: 2mM) | NP40-soluble protein abundance (concentration: 4mM) | NP40-soluble protein abundance (concentration: 6mM) | NP40-soluble protein abundance (concentration: 8mM) | NP40-soluble protein abundance (concentration: 10mM) |
| --- | --- | --- | --- | --- | --- | --- |
| MUL1 (UniProt Q969V5) | 1.03 ± 0.039 | 1.01 ± 0.02 | 1.02 ± 0.033 | 1.02 ± 0.036 | 1.03 ± 0.043 | 1.04 ± 0.035 |
| UniProt Q969S9 and related entries | 1.03 ± 0.067 | 1.01 ± 0.04 | 1.04 ± 0.07 | 0.973 ± 0.054 | 1.01 ± 0.043 | 1.01 ± 0.046 |
| UniProt Q8TBB5 and related entries | 1 ± 0.036 | 1.01 ± 0.014 | 0.987 ± 0.024 | 1.02 ± 0.029 | 0.9889 ± 0.0054 | 1.017 ± 0.0077 |
| UniProt Q96BD8 | 0.936 ± 0.062 | 0.931 ± 0.043 | 0.917 ± 0.045 | 0.974 ± 0.086 | 0.967 ± 0.029 | 0.909 ± 0.11 |
| CCDC12 (UniProt Q8WUD4) | 0.882 ± 0.11 | 0.863 ± 0.065 | 0.829 ± 0.095 | 0.847 ± 0.12 | 0.881 ± 0.03 | 0.727 ± 0.26 |
| UniProt Q8TF01 | 1.37 ± 0.11 | 1.28 ± 0.078 | 1.29 ± 0.066 | 1.34 ± 0.045 | 1.31 ± 0.034 | 1.35 ± 0.048 |
| ZNF622 (UniProt Q969S3) | 1.05 ± 0.088 | 1.07 ± 0.052 | 1.09 ± 0.057 | 1.12 ± 0.062 | 1.09 ± 0.053 | 1.11 ± 0.043 |
| LEO1 (UniProt Q8WVC0) | 0.992 ± 0.056 | 0.979 ± 0.029 | 0.935 ± 0.027 | 0.854 ± 0.019 | 0.674 ± 0.062 | 0.563 ± 0.043 |
| UniProt Q8TEA7 and related entries | 0.976 ± 0.1 | 0.945 ± 0.032 | 0.874 ± 0.055 | 0.801 ± 0.11 | 0.912 ± 0.015 | 0.891 ± 0.06 |
| BCL7C (UniProt Q8WUZ0) | 0.991 ± 0.054 | 0.977 ± 0.065 | 0.996 ± 0.075 | 0.978 ± 0.17 | 0.913 ± 0.097 | 0.956 ± 0.039 |
| TMEM263 (UniProt Q8WUH6) | 0.953 ± 0.1 | 0.993 ± 0.061 | 1.01 ± 0.066 | 0.971 ± 0.12 | 0.931 ± 0.03 | 0.988 ± 0.075 |
| UniProt Q96B01 and related entries | 0.987 ± 0.044 | 1.02 ± 0.041 | 0.974 ± 0.057 | 1.08 ± 0.032 | 1 ± 0.098 | 1.02 ± 0.093 |
| RAB8B (UniProt Q92930) | 0.99 ± 0.053 | 0.97 ± 0.075 | 0.928 ± 0.053 | 0.99 ± 0.094 | 0.951 ± 0.068 | 0.954 ± 0.057 |
| GPKOW (UniProt Q92917) | 1.05 ± 0.06 | 1.03 ± 0.041 | 1.02 ± 0.04 | 1.08 ± 0.026 | 1.02 ± 0.026 | 1.01 ± 0.033 |
| UniProt Q8TDD1 and related entries | 1.09 ± 0.04 | 1.15 ± 0.019 | 1.19 ± 0.016 | 1.24 ± 0.07 | 1.32 ± 0.021 | 1.42 ± 0.091 |
| UniProt Q969E4 | 0.998 ± 0.15 | 0.995 ± 0.16 | 0.919 ± 0.12 | 1.04 ± 0.2 | 0.999 ± 0.18 | 0.904 ± 0.25 |
| PCNP (UniProt Q8WW12) | 0.923 ± 0.095 | 0.947 ± 0.081 | 0.903 ± 0.032 | 0.975 ± 0.11 | 0.879 ± 0.03 | 0.847 ± 0.11 |
| UniProt Q8WUQ7 and related entries | 0.9496 ± 0.0053 | 0.98 ± 0.016 | 1.05 ± 0.012 | 1.11 ± 0.0066 | 1.14 ± 0.054 | 1.22 ± 0.061 |
| UniProt Q8WXE1 and related entries | 0.955 ± 0.12 | 1 ± 0.014 | 0.994 ± 0.052 | 1.01 ± 0.11 | 0.935 ± 0.044 | 0.968 ± 0.056 |
| FAM172A (UniProt Q8WUF8) | 1.04 ± 0.055 | 1.05 ± 0.037 | 1.06 ± 0.073 | 1.07 ± 0.022 | 1.03 ± 0.05 | 1.08 ± 0.045 |
| UniProt Q96AC1 and related entries | 1.04 ± 0.12 | 1.06 ± 0.09 | 1.07 ± 0.11 | 0.978 ± 0.087 | 1.02 ± 0.079 | 1.08 ± 0.13 |
| NUP210 (UniProt Q8TEM1) | 1.02 ± 0.039 | 1.02 ± 0.029 | 0.993 ± 0.015 | 0.9978 ± 0.0014 | 1.02 ± 0.011 | 1.05 ± 0.022 |
| RABGGTA (UniProt Q92696) | 1.03 ± 0.095 | 1.02 ± 0.076 | 1.01 ± 0.064 | 0.947 ± 0.11 | 1.01 ± 0.049 | 0.988 ± 0.044 |
| CCDC102A (UniProt Q96A19) | 0.973 ± 0.087 | 0.944 ± 0.17 | 0.937 ± 0.09 | 0.928 ± 0.11 | 0.943 ± 0.099 | 1.1 ± 0.13 |
| UniProt Q92567 and related entries | 0.794 ± 0.016 | 0.927 ± 0.11 | 0.78 ± 0.029 | 0.882 ± 0.12 | 0.733 ± 0.044 | 0.828 ± 0.086 |
| DHX38 (UniProt Q92620) | 1.09 ± 0.03 | 1.11 ± 0.019 | 1.14 ± 0.018 | 1.19 ± 0.03 | 1.19 ± 0.029 | 1.17 ± 0.039 |

Exported in CSV form: part of the list above
Target,NP40-soluble protein abundance (concentration: 1mM),NP40-soluble protein abundance (concentration: 2mM),NP40-soluble protein abundance (concentration: 4mM),NP40-soluble protein abundance (concentration: 6mM),NP40-soluble protein abundance (concentration: 8mM),NP40-soluble protein abundance (concentration: 10mM)
UniProt Q8TF01,1.37 ± 0.11,1.28 ± 0.078,1.29 ± 0.066,1.34 ± 0.045,1.31 ± 0.034,1.35 ± 0.048
ZNF622 (UniProt Q969S3),1.05 ± 0.088,1.07 ± 0.052,1.09 ± 0.057,1.12 ± 0.062,1.09 ± 0.053,1.11 ± 0.043

(list continues)

| Target | NP40-soluble protein abundance (concentration: 1mM) | NP40-soluble protein abundance (concentration: 2mM) | NP40-soluble protein abundance (concentration: 4mM) | NP40-soluble protein abundance (concentration: 6mM) | NP40-soluble protein abundance (concentration: 8mM) | NP40-soluble protein abundance (concentration: 10mM) |
| --- | --- | --- | --- | --- | --- | --- |
| UniProt Q8TCE6 and related entries | 1.01 ± 0.041 | 0.998 ± 0.037 | 1.01 ± 0.051 | 1 ± 0.035 | 0.9792 ± 0.0079 | 0.998 ± 0.078 |
| UniProt Q8TBX8 and related entries | 1.05 ± 0.047 | 1.07 ± 0.053 | 1.08 ± 0.032 | 1.02 ± 0.079 | 1.08 ± 0.05 | 1.02 ± 0.019 |
| TGFBRAP1 (UniProt Q8WUH2) | 1.03 ± 0.091 | 0.971 ± 0.048 | 0.982 ± 0.025 | 0.916 ± 0.051 | 0.997 ± 0.029 | 0.981 ± 0.042 |
| PMM1 (UniProt Q92871) | 0.999 ± 0.034 | 0.972 ± 0.065 | 0.972 ± 0.029 | 0.976 ± 0.11 | 0.992 ± 0.024 | 0.956 ± 0.019 |
| UniProt Q8WUB8 and related entries | 1.2 ± 0.026 | 1.21 ± 0.058 | 1.26 ± 0.073 | 1.33 ± 0.17 | 1.29 ± 0.05 | 1.31 ± 0.022 |
| UniProt Q969G3 and related entries | 1.02 ± 0.098 | 1.01 ± 0.086 | 0.972 ± 0.1 | 1.05 ± 0.18 | 1.01 ± 0.1 | 0.963 ± 0.075 |
| STT3B (UniProt Q8TCJ2) | 0.962 ± 0.047 | 0.967 ± 0.052 | 0.965 ± 0.012 | 0.906 ± 0.027 | 0.966 ± 0.017 | 0.976 ± 0.061 |
| PRPF31 (UniProt Q8WWY3) | 1.07 ± 0.055 | 1.08 ± 0.045 | 1.05 ± 0.03 | 1.15 ± 0.048 | 1.09 ± 0.027 | 1.12 ± 0.018 |
| UniProt Q8TDQ7 and related entries | 1.01 ± 0.093 | 1.02 ± 0.026 | 1.01 ± 0.062 | 0.92 ± 0.11 | 0.987 ± 0.086 | 0.999 ± 0.016 |
| UniProt Q8TDR0 and related entries | 0.99 ± 0.027 | 0.997 ± 0.041 | 1.04 ± 0.035 | 0.938 ± 0.14 | 0.959 ± 0.03 | 1.04 ± 0.053 |
| PHIP (UniProt Q8WWQ0) | 1.12 ± 0.056 | 1.19 ± 0.043 | 1.16 ± 0.018 | 1.22 ± 0.12 | 1.14 ± 0.09 | 1.24 ± 0.063 |
| UniProt Q8TCT9 and related entries | 0.956 ± 0.066 | 0.988 ± 0.03 | 0.951 ± 0.05 | 0.918 ± 0.07 | 0.93 ± 0.031 | 0.934 ± 0.049 |
| RTN4IP1 (UniProt Q8WWV3) | 1.03 ± 0.037 | 1.04 ± 0.047 | 0.997 ± 0.018 | 0.995 ± 0.025 | 1.03 ± 0.021 | 1.01 ± 0.063 |
| NTAN1 (UniProt Q96AB6) | 1.08 ± 0.041 | 1.06 ± 0.069 | 1.08 ± 0.073 | 1.07 ± 0.1 | 1.14 ± 0.061 | 1.18 ± 0.15 |
| UniProt Q92542 and related entries | 0.944 ± 0.025 | 0.955 ± 0.011 | 0.94 ± 0.024 | 0.967 ± 0.02 | 0.928 ± 0.044 | 0.895 ± 0.075 |
| UniProt Q8TDN6 | 1.04 ± 0.029 | 1.11 ± 0.073 | 1.13 ± 0.068 | 1.24 ± 0.079 | 1.2 ± 0.043 | 1.35 ± 0.065 |
| UniProt Q96B96 and related entries | 0.904 ± 0.04 | 0.915 ± 0.013 | 0.911 ± 0.031 | 0.882 ± 0.015 | 0.823 ± 0.027 | 0.936 ± 0.056 |
| GEMIN6 (UniProt Q8WXD5) | 0.986 ± 0.041 | 0.832 ± 0.14 | 0.883 ± 0.015 | 0.882 ± 0.081 | 0.871 ± 0.047 | 0.827 ± 0.02 |
| NUP133 (UniProt Q8WUM0) | 1.12 ± 0.061 | 1.09 ± 0.048 | 1.09 ± 0.056 | 1.08 ± 0.03 | 1.14 ± 0.029 | 1.15 ± 0.055 |
| UniProt Q8WVE0 | 0.965 ± 0.048 | 0.986 ± 0.074 | 0.981 ± 0.02 | 1.02 ± 0.093 | 1.03 ± 0.15 | 0.944 ± 0.029 |
| ISG20 (UniProt Q96AZ6) | 1.12 ± 0.14 | 1.07 ± 0.11 | 1.2 ± 0.19 | 1.14 ± 0.14 | 1.12 ± 0.16 | 1.1 ± 0.12 |
| OVCA2 (UniProt Q8WZ82) | 1.07 ± 0.15 | 1.05 ± 0.16 | 0.966 ± 0.16 | 1.06 ± 0.17 | 0.994 ± 0.3 | 1.02 ± 0.31 |
| UniProt Q93015 and related entries | 0.962 ± 0.05 | 0.934 ± 0.029 | 1.1 ± 0.059 | 0.958 ± 0.0097 | 0.852 ± 0.067 | 0.87 ± 0.029 |
| LPP (UniProt Q93052) | 0.989 ± 0.077 | 0.964 ± 0.073 | 0.972 ± 0.092 | 0.949 ± 0.05 | 0.927 ± 0.06 | 0.945 ± 0.05 |
| GCDH (UniProt Q92947) | 0.937 ± 0.059 | 0.938 ± 0.031 | 0.925 ± 0.015 | 0.895 ± 0.041 | 0.936 ± 0.024 | 0.947 ± 0.022 |
| UniProt Q93100 and related entries | 1 ± 0.048 | 0.941 ± 0.039 | 0.939 ± 0.019 | 0.902 ± 0.089 | 0.957 ± 0.048 | 0.899 ± 0.084 |

Reference: the supplement of paper PMC6411743
